{
  "source": "patent US8728797B2",
  "about": "“Yeast membrane protein expression system and its application in drug screening” (priority 2001, dated 2014)",
  "assay_type_in_all_cases": "cell-based, S. cerevisiae",
  "settings_in_all_cases": "AD-pABC as negative control, 30° C., 48 h",
  "key": {"AD-CDR1 (Cdr1p)": {"tested_on": "AD-CDR1 (Cdr1p)", "assay": "Disk diffusion assay, AD-CDR1", "experimental": "(§1) The cells were spread on CSM-agar plates and exposed to the drugs or chemicals applied to filter disks and incubated at 30° C. for 48 h. The amounts of individual drugs are given in the Materials and Methods section of Example 3. Rhodamine 6G and rhodamine 123 were dissolved in ethanol and the other antifungals were dissolved in DMSO.\n(§2) Drug susceptibility was measured using disk assays on CSM-URA plates (containing 1.5% w/v agar). Yeast cells (200 μl ml of 5×10^6 cells/ml) were spread on the plates. 10 μl of drug solution or solvent control were spotted onto sterile Whatman paper disks on the pre-spread plates. The following amounts (nmoles) of drugs were applied to individual disks: fluconazole, 633 (Pfizer Ltd., Sandwich, Kent, United Kingdom); itraconazole, 0.23 (Janssen); miconazole, 0.42 (Janssen); cycloheximide, 0.71 (Sigma); rhodamine 6G, 100 (Sigma, Penrose, Auckland, N. Z.); rhodamine 123, 125 (Sigma); cerulenin 4.5 (Sigma); 5-flucytosine 100 (Sigma); amphotericin B, 97 (E. R. Squibb & Sons, Princeton, N.J.); nystatin 65 (Sigma). Agar plates were incubated at 30° C. for 48 h or until clear growth inhibition zones were visible."}, "AD-PDR5 (Pdr5p)": {"tested_on": "AD-PDR5 (Pdr5p)", "assay": "Disk diffusion assay, AD-PDR5", "experimental": "as §1, §2"}, "AD-ERG11 (Erg11p)": {"tested_on": "AD-ERG11 (Erg11p)", "assay": "Disk diffusion assay, AD-ERG11", "experimental": "as §1, §2"}, "AD-BEN^R (Ben^Rp)": {"tested_on": "AD-BEN^R (Ben^Rp)", "assay": "Disk diffusion assay, AD-BEN^R", "experimental": "as §1, §2"}},
  "note": "At least one structure is not confirmed: it was looked up by name or label, or the drawing left a doubt.",
  "data": [
    {"smiles": "CCC(C)n1ncn(-c2ccc(N3CCN(c4ccc(OCC5COC(Cn6cncn6)(c6ccc(Cl)cc6Cl)O5)cc4)CC3)cc2)c1=O", "note": "(stereo not shown) [itraconazole]", "values": [
      {"measurement": "resistance/sensitivity in disk diffusion assay", "setting": "AD-CDR1 (Cdr1p)", "result": "resistances"},
      {"measurement": "resistance/sensitivity in disk diffusion assay", "setting": "AD-PDR5 (Pdr5p)", "result": "resistances"},
      {"measurement": "resistance/sensitivity in disk diffusion assay", "setting": "AD-ERG11 (Erg11p)", "result": "some resistance"},
      {"measurement": "resistance/sensitivity in disk diffusion assay", "setting": "AD-BEN^R (Ben^Rp)", "result": "fully sensitive"}
    ]}
  ]
}
